In the experiment the target is gpIb receptor on lyophilized human platelets (human) (UniProt P07359). As to the kind of experiment: flow cytometry on lyophilized human platelets with botrocetin; anti-poly-His antibody and PE secondary antibody. A general note: A flow cytometer gives signals particle by particle.

Sequences of proteins named here, by UniProt entry; tags and fusion partners are left off. Residues count along the entry.
UniProt P07359, residues 17-652: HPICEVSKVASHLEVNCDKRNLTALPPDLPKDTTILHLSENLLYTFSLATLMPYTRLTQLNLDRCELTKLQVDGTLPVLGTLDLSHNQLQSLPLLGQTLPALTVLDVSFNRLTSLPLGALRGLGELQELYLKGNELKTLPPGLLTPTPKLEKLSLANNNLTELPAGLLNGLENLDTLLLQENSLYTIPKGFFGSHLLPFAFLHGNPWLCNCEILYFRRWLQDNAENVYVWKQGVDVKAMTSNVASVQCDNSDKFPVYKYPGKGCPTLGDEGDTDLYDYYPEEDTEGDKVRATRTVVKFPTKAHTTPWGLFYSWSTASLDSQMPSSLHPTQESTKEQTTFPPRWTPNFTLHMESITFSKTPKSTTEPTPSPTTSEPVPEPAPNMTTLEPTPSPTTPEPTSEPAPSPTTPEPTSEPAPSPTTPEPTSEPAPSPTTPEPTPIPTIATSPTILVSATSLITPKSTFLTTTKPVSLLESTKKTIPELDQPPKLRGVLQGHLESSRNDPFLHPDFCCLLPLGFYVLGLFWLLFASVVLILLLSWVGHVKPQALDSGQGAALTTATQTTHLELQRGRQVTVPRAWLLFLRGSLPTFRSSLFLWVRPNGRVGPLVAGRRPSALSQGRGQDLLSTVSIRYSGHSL

No constants are given. Whether binding was seen depends on the method and setting. Some binding calls cover weakened binding; strength is not graded here. Tags and fused reporters may be left off the sequences shown.

B1: 6-Histidine-tagged rabbit von Willebrand Factor A1 domain (ligand)
chain: MGHHHHHHEPPLHDFYWSNLMDLVFLLDGSAQLSEAEFGVLKAFVVSVMERLHISQKRIRVAVVEYHDGSHSYISLKDRKRPSELRRIASQVKYAGGPVASTSEVLKYTLFHIFSNVDRPEASRIALLLSASQETPRMVRNLVRYAQGLKKEKVIVIPVGIGPHVSLRQIHLIEKQAPENKAFVLSGVDELEQRRDEIISYLCDLGPEAPVPT
As to B1, the binding result is “binds”.

Values taken from patent US20060183702A1.
